Source: patent US20210017287A1 (published 2021)
Substitutions are numbered along the chain they refer to. These are yes or no findings as the source states them, for the method shown. Some entries that bind do so weakly or less than the wild type. For some assays here: Where a sequence is shown, tags or fusion partners need not be part of it. Values belong to the binder of their own block, whether it stands above or below them.

What was measured:
[1] = target: T1, TNFRSF25-Fc fusion protein (UniProt Q93038 25-199, limits assumed, biotinylated in the capture ELISA (site not stated)); experiment: ELISA of combinatorial scFv clones (FIG. 10)
T1 construct: also called TNFRSF25-Fc protein; biotinylated antigen protein; not shown: Fc part
T1 sequence (looked up): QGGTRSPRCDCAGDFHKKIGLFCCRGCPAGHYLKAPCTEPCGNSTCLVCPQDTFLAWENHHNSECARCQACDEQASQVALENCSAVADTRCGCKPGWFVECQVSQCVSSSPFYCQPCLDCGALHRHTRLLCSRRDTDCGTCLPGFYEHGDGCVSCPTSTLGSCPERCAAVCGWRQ

[2] = target: T1, TNFRSF25-Fc fusion protein; experiment: ELISA of scFv clones (FIG. 10)
[3] = target: T1, TNFRSF25-Fc fusion protein; experiment: ELISA on TNFRSF25-Fc (FIG. 10; data of the scFv clones)
[4] = target: T2, human TNFRSF25 expressed on p815 cells (human) (UniProt Q93038); experiment: flow cytometry competition against hTL1A-Ig-AF647 on p815-hDR3 cells (FIG. 13A)
T2 sequence: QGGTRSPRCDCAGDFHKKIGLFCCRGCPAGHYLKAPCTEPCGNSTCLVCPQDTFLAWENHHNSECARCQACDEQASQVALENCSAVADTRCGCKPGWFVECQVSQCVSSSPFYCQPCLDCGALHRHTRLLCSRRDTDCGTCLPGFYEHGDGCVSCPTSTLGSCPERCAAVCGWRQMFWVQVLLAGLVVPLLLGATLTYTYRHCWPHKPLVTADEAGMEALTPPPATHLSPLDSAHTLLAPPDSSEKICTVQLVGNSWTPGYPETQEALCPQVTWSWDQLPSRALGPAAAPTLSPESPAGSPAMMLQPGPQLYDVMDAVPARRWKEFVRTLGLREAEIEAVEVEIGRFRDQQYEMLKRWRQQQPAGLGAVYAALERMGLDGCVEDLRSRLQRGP

[5] = target: T2, human TNFRSF25 expressed on p815 cells (human); experiment: flow cytometry competition on p815-hDR3 cells
[6] = target: T2, human TNFRSF25 expressed on p815 cells (human); experiment: flow cytometry competition against 4C12-AF647 on p815-hDR3 cells (FIG. 13B)
[7] = target: T1, TNFRSF25-Fc fusion protein; experiment: ELISA on TNFRSF25-Fc (results of Example 3 told in the description)
[8] = target: T1, TNFRSF25-Fc fusion protein; experiment: ELISA on TNFRSF25-Fc (data of the scFv clones)
[9] = target: T1, TNFRSF25-Fc fusion protein; experiment: capture ELISA of scFv

- binding [4]: binds
- binding [6]: binds
B3: W3072-z4C12-m3, IgG1 format (M3-uIgG1L) (antibody, V domains shown)
VH: EVQLVESGGGLSQPGNSLQLSCEASGFTFSNHDLNWVRQAPGKGLEWVAYISSASGLISYADAVRGRFTISRDNAKNSLFLQMNNLKSEDTAMYYCARDPAYTGLYALDFWGQGTQVTVSS
VL: QPVLTQSPSASASLSGSVKLTCTLSSELSGFTIVWYQQRPDKAPKYVMYLKSDGSHSKGDGIPDRFSGSSSGAHRYLSISNVQSEDDATYFCGAGYTLANQYGWVFGSGTKVTVL

- binding [1]: binds
- binding [2]: binds
- binding [3]: binds
B5: 9A5 (scFv, V domains shown)
VH: B3 VH
VL: B3 VL
notes: scFv; Frameworks and unchanged CDRs are those of the parental clone

- binding [1]: binds
- binding [2]: binds
- binding [3]: binds
B7: 5A6 (scFv, V domains shown)
VH: B3 VH with A101P
VL: B3 VL with G30N
notes: as for B5

More lines, now with the values behind:

B1: 1F10 (scFv, V domains shown)
VH: B3 VH
VL: B3 VL with G30N, N100S
notes: as for B5
- binding [1]: binds
- binding [2]: binds
- binding [3]: binds

B2: W3072-z4C12-m5, IgG1 format (M5-uIgG1L) (antibody, V domains shown)
VH: B3 VH with A101P, T103S
VL: B3 VL with G30W, F31Y, N100G
- binding [4]: binds
- binding [5]: binds
- binding [6]: binds

B4: W3072-z4C12-m4, IgG1 format (M4-uIgG1L) (antibody, V domains shown)
VH: B3 VH
VL: B3 VL with G30W, F31Y, N100G
- binding [4]: binds
- binding [5]: binds
- binding [6]: binds

B6: 9G2 (scFv, V domains shown)
VH: B3 VH
VL: B3 VL with G30W, F31Y, N100G
notes: as for B5
- binding [2]: binds
- binding [3]: binds
- binding [7]: binds
- binding [8]: binds

B8: 42G2 (scFv, V domains shown)
VH: B3 VH with A101P, T103S
VL: B3 VL with G30W, F31Y, N100G
notes: scFv
- binding [2]: binds
- binding [3]: binds
- binding [7]: binds
- binding [8]: binds
- binding [9]: binds
